Measured values reported in PMC10936415.

Sequences of proteins named here, by UniProt entry; tags and fusion partners are left off.
UniProt Q9UBQ5: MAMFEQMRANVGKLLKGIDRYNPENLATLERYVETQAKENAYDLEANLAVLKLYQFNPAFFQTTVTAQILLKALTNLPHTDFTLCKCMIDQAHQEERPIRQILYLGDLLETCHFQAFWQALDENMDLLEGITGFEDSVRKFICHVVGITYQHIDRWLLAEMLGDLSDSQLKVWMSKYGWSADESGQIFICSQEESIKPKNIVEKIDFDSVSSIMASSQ

Molecular target: human eIF3 subunit K (eIF3-K), yeast two-hybrid fusion (human) (UniProt Q9UBQ5)
Experiment: two-hybrid

Substance: Lha0223 (VipF ortholog of Legionella hackeliae), yeast two-hybrid fusion (from UniProt A0A0A8UKD4) (enzyme)
- binding: binds

Substance: Llo3312 (VipF ortholog of Legionella longbeachae), yeast two-hybrid fusion (from UniProt D3HMS6) (enzyme)
- binding: binds

No constants are given. Whether binding was seen depends on the method and setting. A result given as binding can be weak or reduced; the word gives no strength.
